Reference: article PMC5117846
No constants are given. Whether binding was seen depends on the method and setting. In cells and extracts the contact can be indirect. Some entries that bind do so weakly or less than the wild type. For part of these data: Sequences can lack the tags named with a protein.

T1: CK1α (1–285) (UniProt P48729)
T1 sequence: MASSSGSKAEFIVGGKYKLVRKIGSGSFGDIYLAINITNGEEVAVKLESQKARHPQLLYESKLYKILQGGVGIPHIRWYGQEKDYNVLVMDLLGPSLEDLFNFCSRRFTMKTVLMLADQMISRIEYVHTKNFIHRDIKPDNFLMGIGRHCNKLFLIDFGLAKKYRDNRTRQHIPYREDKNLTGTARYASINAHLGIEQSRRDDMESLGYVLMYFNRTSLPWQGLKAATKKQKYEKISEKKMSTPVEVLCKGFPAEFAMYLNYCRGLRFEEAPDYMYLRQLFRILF

B1: Myc-HPIP (protein, UniProt Q96AQ6 1-731)
chain: MASCPDSDNSWVLAGSESLPVETLGPASRMDPESERALQAPHSPSKTDGKELAGTMDGEGTLFQTESPQSGSILTEETEVKGTLEGDVCGVEPPGPGDTVVQGDLQETTVVTGLGPDTQDLEGQSPPQSLPSTPKAAWIREEGRCSSSDDDTDVDMEGLRRRRGREAGPPQPMVPLAVENQAGGEGAGGELGISLNMCLLGALVLLGLGVLLFSGGLSESETGPMEEVERQVLPDPEVLEAVGDRQDGLREQLQAPVPPDSVPSLQNMGLLLDKLAKENQDIRLLQAQLQAQKEELQSLMHQPKGLEEENAQLRGALQQGEAFQRALESELQQLRARLQGLEADCVRGPDGVCLSGGRGPQGDKAIREQGPREQEPELSFLKQKEQLEAEAQALRQELERQRRLLGSVQQDLERSLQDASRGDPAHAGLAELGHRLAQKLQGLENWGQDPGVSANASKAWHQKSHFQNSREWSGKEKWWDGQRDRKAEHWKHKKEESGRERKKNWGGQEDREPAGRWKEGRPRVEESGSKKEGKRQGPKEPPRKSGSFHSSGEKQKQPRWREGTKDSHDPLPSWAELLRPKYRAPQGCSGVDECARQEGLTFFGTELAPVRQQELASLLRTYLARLPWAGQLTKELPLSPAFFGEDGIFRHDRLRFRDFVDALEDSLEEVAVQQTGDDDEVDDFEDFIFSHFFGDKALKKRSGKKDKHSQSPRAAGPREGHSHSHHHHHRG
B2: HPIP (in the CK1α mapping experiment of Figure 2f) (protein, UniProt Q96AQ6 1-731)
chain: B1 chain

Tests used:
[1] = molecular target: FLAG-CK1α (full-length CK1α) (UniProt P48729); experiment: co-IP; 293T cells co-transfected with FLAG-CK1α and Myc-HPIP; IP with anti-FLAG monoclonal antibody, immunoblot with anti-myc
CK1α (1–285) = molecular target: T1, CK1α (1–285); experiment: co-IP; series of mutant FLAG-CK1α fusion proteins used in IP experiments; the legend of Figure 2f says GST pull-down as in Figure 2e
[2] = molecular target: FLAG-CK1α (full-length CK1α) (UniProt P48729); experiment: as above

binding [1] | binding (CK1α (1–285)) | binding [2] | Binder
binds | – | – | B1
– | binds | binds | B2
